Assay results: article doi:10.1101/2020.02.12.946293
No constants are given. Whether binding was seen depends on the method and setting. Some entries that bind do so weakly or less than the wild type. Blank lines part the entries; values can stand above or below the binder they belong to.

Key:
[1] = molecular target: yMsh4-yMsh5 (S. cerevisiae) (UniProt P40965+Q12175); assay: pull-down
[2] = molecular target: T1, yMsh5 (S. cerevisiae) (UniProt Q12175); assay: co-purification by tandem affinity
T1 sequence: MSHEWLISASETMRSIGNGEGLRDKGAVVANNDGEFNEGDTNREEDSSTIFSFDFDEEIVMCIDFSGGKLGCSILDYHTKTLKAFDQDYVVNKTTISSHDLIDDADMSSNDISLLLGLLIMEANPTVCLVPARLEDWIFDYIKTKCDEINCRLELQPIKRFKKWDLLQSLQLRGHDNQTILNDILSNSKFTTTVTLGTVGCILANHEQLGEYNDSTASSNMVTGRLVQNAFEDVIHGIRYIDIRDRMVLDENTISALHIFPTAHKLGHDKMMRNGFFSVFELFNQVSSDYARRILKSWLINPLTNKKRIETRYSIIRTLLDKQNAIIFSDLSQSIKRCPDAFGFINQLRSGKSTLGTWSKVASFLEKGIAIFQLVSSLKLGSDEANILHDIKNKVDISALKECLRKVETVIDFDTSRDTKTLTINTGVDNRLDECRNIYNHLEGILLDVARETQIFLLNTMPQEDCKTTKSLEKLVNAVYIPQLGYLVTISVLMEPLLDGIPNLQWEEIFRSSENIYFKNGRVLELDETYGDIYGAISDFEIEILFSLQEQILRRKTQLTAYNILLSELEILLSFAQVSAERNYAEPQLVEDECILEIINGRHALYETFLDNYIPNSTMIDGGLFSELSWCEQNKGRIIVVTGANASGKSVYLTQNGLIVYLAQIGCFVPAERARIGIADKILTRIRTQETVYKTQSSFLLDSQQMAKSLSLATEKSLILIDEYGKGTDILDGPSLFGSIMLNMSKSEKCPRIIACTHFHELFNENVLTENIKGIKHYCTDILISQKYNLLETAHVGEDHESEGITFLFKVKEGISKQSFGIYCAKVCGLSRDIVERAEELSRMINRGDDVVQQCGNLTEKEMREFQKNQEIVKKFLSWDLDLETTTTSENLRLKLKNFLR

binding [1]: binds
B1: yMlh1-yMlh3 (complex, UniProt P38920;Q12083)
chain 1: MSLRIKALDASVVNKIAAGEIIISPVNALKEMMENSIDANATMIDILVKEGGIKVLQITDNGSGINKADLPILCERFTTSKLQKFEDLSQIQTYGFRGEALASISHVARVTVTTKVKEDRCAWRVSYAEGKMLESPKPVAGKDGTTILVEDLFFNIPSRLRALRSHNDEYSKILDVVGRYAIHSKDIGFSCKKFGDSNYSLSVKPSYTVQDRIRTVFNKSVASNLITFHISKVEDLNLESVDGKVCNLNFISKKSISPIFFINNRLVTCDLLRRALNSVYSNYLPKGNRPFIYLGIVIDPAAVDVNVHPTKREVRFLSQDEIIEKIANQLHAELSAIDTSRTFKASSISTNKPESLIPFNDTIESDRNRKSLRQAQVVENSYTTANSQLRKAKRQENKLVRIDASQAKITSFLSSSQQFNFEGSSTKRQLSEPKVTNVSHSQEAEKLTLNESEQPRDANTINDNDLKDQPKKKQKLGDYKVPSIADDEKNALPISKDGYIRVPKERVNVNLTSIKKLREKVDDSIHRELTDIFANLNYVGVVDEERRLAAIQHDLKLFLIDYGSVCYELFYQIGLTDFANFGKINLQSTNVSDDIVLYNLLSEFDELNDDASKEKIISKIWDMSSMLNEYYSIELVNDGLDNDLKSVKLKSLPLLLKGYIPSLVKLPFFIYRLGKEVDWEDEQECLDGILREIALLYIPDMVPKVDTSDASLSEDEKAQFINRKEHISSLLEHVLFPCIKRRFLAPRHILKDVVEIANLPDLYKVFERC
chain 2: MSQHIRKLDSDVSERLKSQACTVSLASAVREIVQNSVDAHATTIDVMIDLPNLSFAVYDDGIGLTRSDLNILATQNYTSKIRKMNDLVTMKTYGYRGDALYSISNVSNLFVCSKKKDYNSAWMRKFPSKSVMLSENTILPIDPFWKICPWSRTKSGTVVIVEDMLYNLPVRRRILKEEPPFKTFNTIKADMLQILVMHPMISLNVQYTDKLRINTEVLFRSKNITEGLTKHQQMSQVLRNVFGAIIPPDMLKKVSLKFNEYQIEGIISKMPVGLKDLQFIYINGRRYADSAFQGYVDSLFQAQDFGEKGMSLLKTKSVGKPYRSHPVFILDVRCPQTIDDLLQDPAKKIVKPSHIRTIEPLIVKTIRSFLTFQGYLTPDKSDSSFEIVNCSQKTATLPDSRIQISKRNQVLNSKMKIARINSYIGKPAVNGCRINNSTINYEKIKNIRIDGQKSRLRNKLSSRPYDSGFTEDYDSIGKTITDFSISRSVLAKYEVINQVDKKFILIRCLDQSIHNCPLLVLVDQHACDERIRLEELFYSLLTEVVTGTFVARDLKDCCIEVDRTEADLFKHYQSEFKKWGIGYETIEGTMETSLLEIKTLPEMLTSKYNGDKDYLKMVLLQHAHDLKDFKKLPMDLSHFENYTSVDKLYWWKYSSCVPTVFHEILNSKACRSAVMFGDELTRQECIILISKLSRCHNPFECAHGRPSMVPIAELK

binding [2]: binds
B2: yMsh4 (protein, UniProt P40965 1-878)
chain: MSESNLSSFISTNYFNLRSAANSSNSISKPSTKKSIRNQKSPTNISSWALKKKTLQIAETTWENNEKDSTHSHYLMTGSMASRTATSLSRYSTNASLLGPSIDCVLCCIYEVPRDISTRIGLCIINCNTGQMYLSDFMDSQIYIRVVHKLQIYQPTEILIPSSSLAPTVSKLATMIKFNVAETVKIEEGSRKCFNSQDGLAAITKYLMDDTKKDLKIEEIIDKTFALCAASAAISYMEEIISKSSRNLNAFRKLRIQFEGTENTMLIDSKTVRGLELVENKLDKNGISLWKFLDTTSTKMGQRSLRNSILQPLTDRGSIEMRLEALEELKANDDLLQKLRLEMKSLPDLDKLFSRLLCINHSAIKPDQRINYVLLLKETLQSVKSLKDALNDQLIQSRLISETKKIFNNDAIMEIEKLINSCINEDCVWASSAIQLLNQRSYAVKSDSNGLLDVSRQIYKEVKEEFFREVEDLTAKNKINLDHNYDSARGFYLRIKRQEFTDDVATLPDVFISRTIKKNYIECTTLNIIKKNARLKEVMEEILLLSEETVDELLDKIATHISELFMIAEAVAILDLVCSFTYNLKENNYTIPIFTNNLLIRDSRHPLLEKVLKNFVPNTISSTKHSSSLQIITGCNMSGKSVYLKQVALICIMAQMGSGIPALYGSFPVFKRLHARVCNDSMELTSSNFGFEMKEMAYFLDDINTETLLILDELGRGSSIADGFCVSLAVTEHLLRTEATVFLSTHFQDIPKIMSKKPAVSHLHMDAVLLNDNSVKMNYQLTQKSVAIENSGIRVVKKIFNPDIIAEAYNIHSLLKIAKARTENEDSNGVVDQKTINQMKRIHNLVAILKECAGNEKEPLTLGKLKEINSDFIENFEE
